Measurements as given in PubChem BioAssay AID256 (DTP/NCI, 2004).
The list shows only some results of the screen, not a fair sample: it is rich in T/C values a quarter to a half above the control, in often repeated tests (any T/C) and in doses without a T/C. Further doses and runs are listed elsewhere. T/C is the treated group as % of the vehicle group. Some entries give survivors of the animals treated and no T/C: the source holds a T/C of zero for them, seemingly a mark for toxic or unscored doses. Some doses without a T/C left all or most animals alive at the check, yet need not have been tolerated: the source hardly ever lists a survival T/C far under the control, and the zero likely stands for such cases as well. Survivors were counted at the toxicity check, usually on the fifth day, unless a day is given; later deaths do not show. Schedules are NCI's codes, read here as Q, the interval in days (D) or hours (H), X, the number of doses.

Tested on: CD2F1 mice, L1210 leukemia ip, survival T/C
Assay: NCI In Vivo Anticancer Drug Screen. Data for tumor model L1210 Leukemia (intraperitoneal) in CD2F1 (CDF1) mice
Conditions: T/C endpoint: mean survival time, schedule: Q04DX003 (ip), vehicle: other, higher T/C = longer survival
How it was run: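 Antitumor effect is scored in animals hosting a serially transplanted tumor. Values compare compound-dosed animals against vehicle-only controls as a simple quotient.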

`COc1ccc(N2CSC(=S)N(c3ccc(OC)cc3)C2)cc1` was tested, and the survivor count (dose: 200.0 mg/kg/injection) was 6 of 6 and the survivor count (dose: 400.0 mg/kg/injection) was 6 of 6.
